# Experimental data from PubChem BioAssay AID1347423 (Functional Genomics Laboratory (NCATS/FGL), 2020).
# In all, about 52,000 sequences went through this assay and about 210 (0.4%) were called active.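 The calls were made as follows: active = gene whose silencing raises cell survival under the drug, median off-target-corrected z-score across its silencing RNAs 2 or more; inactive = the rest.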 The list shows a part of the results.
# Experiment: Resistance to Poly (ADP-Ribose) Polymerase inhibitor: Gene Identification via Genome-wide siRNA Screen
# Conditions: mouse BRCA2 R2336H ES cells, olaparib, CellTiter-Glo viability; active compounds read high
# Summary of the method: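 Mouse BRCA2 R2336H ES cells were reverse-transfected with siRNA (20 nM final), treated at 48 h with 500 nM olaparib, and read by CellTiter-Glo after 72 h. Scores: MAD-based z per siRNA, median per gene, seed off-target correction.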
row,Sequence,z-score
1,GGAAGAUGAUUCAGAUUUGTT against BC054059,inactive: 1.27
2,GCCACCCUAACAUUGUUUCTT against 4.93E+23,inactive: 1.51
3,CGGUCUUCCCGUGGUUCAATT against 4921507A12,inactive: -0.479
4,GAUAAUGACCAGGCUACCATT against Magea7,inactive: 1.19
5,GGUAGACACCUUGUUCUUATT against Nap1l3,inactive: 0.898
6,ACAAGGGAGGUAAAAAGAGTT against Olfr92,inactive: -0.0397
7,GGAAAGUAUCCUGACAUUATT against Lig1,inactive: -0.902
8,CCCUUUAUAAGGAAAUGUGTT against BC015286,inactive: -1.63
9,GCUGUUUUUACCUAGUUAGTT against Cpsf6,inactive: -0.0768
10,GCAGGAGAGUUUUGUUUUUTT against Mterf,inactive: 1.37
11,GCGCACACCAUGGAUAGAATT against 2810007J24Rik,inactive: 1.95
12,CCCAGUAUCUCAUGUGCCATT against Aqp5,inactive: 0.905
13,GCUUGUGAAAAAUUAUGAGTT against Ipo7,inactive: -1
14,GGAAUAUGGAGCCUGAAAATT against Nudt15,inactive: -0.0588
15,GGAGGAUUUAAACCGGGAGTT against Ugt1a10,inactive: -1.12
16,GCCAUAGGACCUAAAAGACTT against D230016N13Rik,inactive: -0.0507
17,GCCGAGUGAAAGCAAUUAUTT against Scg3,inactive: 0.882
18,CCUCCACUCACUUGUGACUTT against Slc35a4,inactive: -1.48
19,GCUCAAAUUGCACUAUCUATT against Gpt2,inactive: -0.142
20,GCGAACAUCCAGAGAAUGUTT against 1110012J17Rik,inactive: 1.63
21,CCUGAAUUACCUCAUAUAUTT against Stat5b,inactive: 0.922
22,GGUUGACCCACUGAAAAUUTT against Marveld1,inactive: -1.55

# Fetched one by one from the entries so far:
row,Sequence,z-score
16,GCCAUAGGACCUAAAAGACTT against D230016N13Rik,inactive: -0.0507
22,GGUUGACCCACUGAAAAUUTT against Marveld1,inactive: -1.55
3,CGGUCUUCCCGUGGUUCAATT against 4921507A12,inactive: -0.479

# Continuation.

row,Sequence,z-score
1,GGAAUUGGUAGACCACACCTT against Smr1,inactive: -1.08
2,GGAUUUCUGGAACCUUCAUTT against Caskin2,inactive: -0.941
3,GGAAGUGUUUGUUCUAAUCTT against 9630019K15Rik,inactive: -0.161
4,GGCUGGUGCUGAAUAUCUUTT against 4930539E08Rik,inactive: 1.9
5,GGCAAAGAUCUUAUGGAGATT against Csf3r,inactive: 2.11
6,GCUAACGGUGUAACCAAGATT against A930010I20Rik,inactive: -0.545
7,GCCUGAUCCCAAUCGUGUATT against Smr2,inactive: -1.58
8,GGGACUUUAUAAAGAACUGTT against Ranbp1,inactive: -0.398
9,CCUACAGUCAAGCAGAGCCTT against Klri1,inactive: 0.167
10,GGAAGUGGUAACUGUGACATT against Cklfsf2a,inactive: -1.42
11,GGAGAAAAUUCAAGUCACCTT against Olfr663,inactive: 0.0855
12,GGACAAGAUGAUCUGCCUATT against Lrrc8,inactive: -3.26
13,CGUUCUAGUGACAUGUACATT against Sh2d3c,inactive: 1.08
14,GCGAUAUGAAUAUCAUCUUTT against Fbxo22,inactive: 0.441
15,GGCCGAGGAGAAAUUCAUCTT against Mapk8ip3,inactive: -0.379
16,GGUCACCUUAACCGAGAAGTT against Phkg1,inactive: 1.23
17,GGUUCCUAGAAAGAAAGUGTT against Lypla3,inactive: 1.36
18,CGAGAGGUGAUCUUAGAUUTT against Qscn6l1,inactive: 1.77
19,GGCAAAAAUUUUUUCAUGCTT against Abcb4,inactive: -0.414
20,GUCUGAGCGACUGUCUCCATT against Mef2b,inactive: 1.11
21,GGCUGAGGUUCGAGUGUAUTT against Rps6ka4,inactive: -0.728
22,CCAUCAAUGGGAUAACUAATT against Rnaseh1,inactive: -0.619

row,Sequence,z-score
1,GGAAAGAAAAACGUAGGCGTT against 4933402J07,inactive: -1.41
2,GGGUUUCUUGAUUCUGACCTT against Ccl5,inactive: 0.356
3,GGUACUGGAAAUCUGUAUGTT against Nlgn1,inactive: -0.0487
4,CGAAAGAUGUCUACGUGCCTT against Mrpl27,inactive: 0.508
5,GGAGGAGCUCCAUUUAUGCTT against Zfp71-rs1,inactive: 0.14
6,GGUAGGAGCUCUGAACACUTT against 1300006C06Rik,inactive: 0.648
7,GGACGAUUUUCCUCAAUAUTT against Pcdhgc4,inactive: -1.97
8,CGUUUCUGCAGCAAAAUUUTT against 4921511D23Rik,inactive: 0.274
9,GCAAUGUACUACCAAGAAUTT against Gbe1,inactive: -0.791
10,CGAUGACAGACCCUUUCUGTT against Slc2a8,inactive: 0.102
11,GGAUUUGGACUCAAAACUATT against Pkig,inactive: 0.285
12,GGGACAAGUGUUGUUUGACTT against Epb4.1l2,inactive: 0.484
13,GGAGGAUCUUAAGAAGUUCTT against 0710001P09Rik,inactive: 0.639
14,GGGUGACACCUUGUCCAACTT against Abcc6,inactive: -1.36
15,CCAGAAAUCCCUAUAGAUGTT against D030051N19Rik,inactive: 0.474
16,GGAGGACACUCAGAAGAAATT against 6820443O06Rik,inactive: 0.482
17,GGAUAAACCAGAAACCUUCTT against Sc4mol,inactive: -0.232
18,GGCAGCAGAGAAGAAAGCCTT against Pld3,inactive: -0.496
19,GGCAAACAGAGAGAAUACGTT against Il22ra1,inactive: 2.49
20,CCACUACAGCAUUGUGACGTT against Enpp4,inactive: -1.71
21,GGCACUUCUUGGACAUCAUTT against Sfxn5,inactive: 1.43
22,GGCAUGAGGGCAAAUGAAATT against 4933434M16Rik,inactive: -2.86
